# The list shows a part of the results.
# Experiments:
# Experiment in all cases: glycan array binding signal (z-score within array); higher = stronger binding
# Conditions in all cases: glycan notation: IUPAC condensed, linker removed
# [1] = molecular target: GlcNAc(b1-4)GlcNAc(b1-4)GlcNAc(b1-4)GlcNAc(b1-4)GlcNAc(b1-4)GlcNAc
# Method in brief: (§1)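 Arrays were curated from the Consortium for Functional Glycomics database, 3228 in total, and kept only where the protein sequence was available. Binding is expressed as a within-array Z-score. This score was averaged across arrays of the same protein sequence at different concentrations or buffers and across linkers, and negative values can be read as non-binding.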
# [2] = molecular target: GlcNAc(b1-4)[GlcNAc(b1-6)]GalNAc
# Method in brief: as §1
# [3] = molecular target: GlcNAc(b1-6)Gal(b1-4)GlcNAc
# Method in brief: as §1
# GlcNAc(b1-6)GalNAc = molecular target: GlcNAc(b1-6)GalNAc
# Method in brief: as §1
# [4] = molecular target: GlcNAc6S(b1-3)Gal(b1-4)GlcNAc
# Method in brief: as §1
# Kdn(a2-3)Gal(b1-3)GalNAc = molecular target: Kdn(a2-3)Gal(b1-3)GalNAc
# Method in brief: as §1
# Kdn(a2-3)Gal(b1-3)GlcNAc = molecular target: Kdn(a2-3)Gal(b1-3)GlcNAc
# Method in brief: as §1
# Kdn(a2-3)Gal(b1-4)Glc = molecular target: Kdn(a2-3)Gal(b1-4)Glc
# Method in brief: as §1
# Kdn(a2-3)Gal(b1-4)GlcNAc = molecular target: Kdn(a2-3)Gal(b1-4)GlcNAc
# Method in brief: as §1
# [5] = molecular target: Kdn(a2-3)Gal(b1-4)[Fuc(a1-3)]GlcNAc
# Method in brief: as §1
# Kdn(a2-6)Gal(b1-4)GlcNAc = molecular target: Kdn(a2-6)Gal(b1-4)GlcNAc
# Method in brief: as §1
# [6] = molecular target: Man(a1-2)Man(a1-2)Man(a1-3)Man
# Method in brief: as §1
# [7] = molecular target: Man(a1-2)Man(a1-2)Man(a1-6)[Man(a1-3)]Man
# Method in brief: as §1
# Man(a1-2)Man(a1-3)Man = molecular target: Man(a1-2)Man(a1-3)Man
# Method in brief: as §1
# [8] = molecular target: Man(a1-2)Man(a1-3)[Man(a1-2)Man(a1-6)]Man
# Method in brief: as §1
# [9] = molecular target: Man(a1-2)Man(a1-3)[Man(a1-2)Man(a1-6)]Man(a1-6)[Man(a1-2)Man(a1-2)Man(a1-3)]Man
# Method in brief: as §1
# [10] = molecular target: Man(a1-2)Man(a1-3)[Man(a1-2)Man(a1-6)]Man(a1-6)[Man(a1-2)Man(a1-2)Man(a1-3)]Man(b1-4)GlcNAc(b1-4)GlcNAc
# Method in brief: as §1
# [11] = molecular target: Man(a1-2)Man(a1-3)[Man(a1-6)]Man(a1-6)[Man(a1-2)Man(a1-3)]Man(b1-4)GlcNAc(b1-4)GlcNAc
# Method in brief: as §1
# [12] = molecular target: Man(a1-2)Man(a1-6)[Man(a1-3)]Man(a1-6)[Man(a1-2)Man(a1-2)Man(a1-3)]Man
# Method in brief: as §1
# [13] = molecular target: Man(a1-2)Man(a1-6)[Man(a1-3)]Man(a1-6)[Man(a1-2)Man(a1-2)Man(a1-3)]Man(b1-4)GlcNAc(b1-4)GlcNAc
# Method in brief: as §1
# Man(a1-3)[Man(a1-6)]Man = molecular target: Man(a1-3)[Man(a1-6)]Man
# Method in brief: as §1
# [14] = molecular target: Man(a1-3)[Man(a1-6)]Man(a1-6)[Man(a1-2)Man(a1-3)]Man(b1-4)GlcNAc(b1-4)GlcNAc
# Method in brief: as §1
# [15] = molecular target: Man(a1-3)[Man(a1-6)]Man(a1-6)[Man(a1-3)]Man
# Method in brief: as §1
# [16] = molecular target: Man(a1-3)[Man(a1-6)]Man(a1-6)[Man(a1-3)]Man(b1-4)GlcNAc(b1-4)GlcNAc
# Method in brief: as §1
# [17] = molecular target: Man(a1-3)[Man(a1-6)]Man(b1-4)GlcNAc(b1-4)GlcNAc
# Method in brief: as §1
# [18] = molecular target: Man(a1-3)[Man(a1-6)]Man(b1-4)GlcNAc(b1-4)[Fuc(a1-6)]GlcNAc
# Method in brief: as §1
# Man(a1-6)Man = molecular target: Man(a1-6)Man
# Method in brief: as §1
# Man(b1-4)GlcNAc = molecular target: Man(b1-4)GlcNAc
# Method in brief: as §1
# MurNAc(b1-4)GlcNAc = molecular target: MurNAc(b1-4)GlcNAc
# Method in brief: as §1
# Neu5Ac(a2-3)Gal = molecular target: Neu5Ac(a2-3)Gal
# Method in brief: as §1
# [19] = molecular target: Neu5Ac(a2-3)Gal(b1-3)GalNAc
# Method in brief: as §1
# [20] = molecular target: Neu5Ac(a2-3)Gal(b1-3)GalNAc(b1-3)Gal(a1-4)Gal(b1-4)Glc
# Method in brief: as §1
# [21] = molecular target: Neu5Ac(a2-3)Gal(b1-3)GalNAc(b1-4)Gal(b1-4)Glc
# Method in brief: as §1
# [22] = molecular target: Neu5Ac(a2-3)Gal(b1-3)GalNAc(b1-4)[Neu5Ac(a2-3)]Gal(b1-4)Glc
# Method in brief: as §1
# [23] = molecular target: Neu5Ac(a2-3)Gal(b1-3)GalNAc(b1-4)[Neu5Ac(a2-8)Neu5Ac(a2-3)]Gal(b1-4)Glc
# Method in brief: as §1
# [24] = molecular target: Neu5Ac(a2-3)Gal(b1-3)GalNAc6S
# Method in brief: as §1
# [25] = molecular target: Neu5Ac(a2-3)Gal(b1-3)GlcNAc
# Method in brief: as §1
binder,measurement,setting,value
B936 (Bifidobacterium sp) (protein) MKNWKKAIALVASAAALVSVAACGPSNAGGSSDSGKKTVGFVAVGPEGGFRTANEKDIQKAFEDAGFDLTYSPTQNNDQQKQIQAFNKFVNDEVDAIILSSTEDSGWDDSLKKAAEAEIPVFTVDRNVDVKDAEAKKAIVAHIGPSNVWCGEQAAEFVNKNFPDGANGFILEGPAGLSVVKDRGTGWGNKVASNVKVLESQSANWSTDEAKTVTAGLLDKYKSDNPQFIFAQNDEMGLGAAQAVDAAGLKGKVKIITIDGTKNALQALVDGDLSYVIEYNPIFGKETAQAVKDYLDGKTVEKDIEIESKTFDAASAKEALDNNTRAY,glycan array binding signal (z-score),[1],-0.697
same,glycan array binding signal (z-score),[2],-0.262
same,glycan array binding signal (z-score),[3],-0.106
same,glycan array binding signal (z-score),GlcNAc(b1-6)GalNAc,-0.294
same,glycan array binding signal (z-score),[4],-0.129
same,glycan array binding signal (z-score),Kdn(a2-3)Gal(b1-3)GalNAc,-0.17
same,glycan array binding signal (z-score),Kdn(a2-3)Gal(b1-3)GlcNAc,-0.332
same,glycan array binding signal (z-score),Kdn(a2-3)Gal(b1-4)Glc,-0.77
same,glycan array binding signal (z-score),Kdn(a2-3)Gal(b1-4)GlcNAc,-0.504
same,glycan array binding signal (z-score),[5],-0.769
same,glycan array binding signal (z-score),Kdn(a2-6)Gal(b1-4)GlcNAc,-0.344
same,glycan array binding signal (z-score),[6],-0.385
same,glycan array binding signal (z-score),[7],-0.504
same,glycan array binding signal (z-score),Man(a1-2)Man(a1-3)Man,0.49
same,glycan array binding signal (z-score),[8],-1.34
same,glycan array binding signal (z-score),[9],0.811
same,glycan array binding signal (z-score),[10],-0.362
same,glycan array binding signal (z-score),[11],-0.684
same,glycan array binding signal (z-score),[12],-0.919
same,glycan array binding signal (z-score),[13],-1.1
same,glycan array binding signal (z-score),Man(a1-3)[Man(a1-6)]Man,-0.318
same,glycan array binding signal (z-score),[14],-0.253
same,glycan array binding signal (z-score),[15],0.034
same,glycan array binding signal (z-score),[16],-0.905
same,glycan array binding signal (z-score),[17],-0.27
same,glycan array binding signal (z-score),[18],0.483
same,glycan array binding signal (z-score),Man(a1-6)Man,0.717
same,glycan array binding signal (z-score),Man(b1-4)GlcNAc,0.187
same,glycan array binding signal (z-score),MurNAc(b1-4)GlcNAc,-0.486
same,glycan array binding signal (z-score),Neu5Ac(a2-3)Gal,-0.249
same,glycan array binding signal (z-score),[19],-0.446
same,glycan array binding signal (z-score),[20],1.19
same,glycan array binding signal (z-score),[21],0.147
same,glycan array binding signal (z-score),[22],0.888
same,glycan array binding signal (z-score),[23],-0.073
same,glycan array binding signal (z-score),[24],-0.408
same,glycan array binding signal (z-score),[25],0.032

# 3 entries drawn at random from those above, as already listed:
binder,measurement,setting,value
B936 (Bifidobacterium sp) (protein) MKNWKKAIALVASAAALVSVAACGPSNAGGSSDSGKKTVGFVAVGPEGGFRTANEKDIQKAFEDAGFDLTYSPTQNNDQQKQIQAFNKFVNDEVDAIILSSTEDSGWDDSLKKAAEAEIPVFTVDRNVDVKDAEAKKAIVAHIGPSNVWCGEQAAEFVNKNFPDGANGFILEGPAGLSVVKDRGTGWGNKVASNVKVLESQSANWSTDEAKTVTAGLLDKYKSDNPQFIFAQNDEMGLGAAQAVDAAGLKGKVKIITIDGTKNALQALVDGDLSYVIEYNPIFGKETAQAVKDYLDGKTVEKDIEIESKTFDAASAKEALDNNTRAY,glycan array binding signal (z-score),Man(b1-4)GlcNAc,0.187
same,glycan array binding signal (z-score),MurNAc(b1-4)GlcNAc,-0.486
same,glycan array binding signal (z-score),[19],-0.446

# Reference: the supplement of paper PMC8728848
